Test results taken from the supplement of paper PMC4604168 (melanoma cell lines).
The list shows a part of the results. Single values are uncertain, as repeats are few or missing.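 Cells were imaged in 1,536-well plates, and nuclei stained with an antibody against cleaved PARP were counted against all DNA-stained nuclei to give the apoptosis fraction. Screening doses were chosen to leave most cells alive, and resting and induced cleaved-PARP levels differ strongly between cell lines.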

Columns and labels:
Test in all cases: cleaved PARP positive nuclei fraction relative to DMSO control; melanoma cells; higher = more apoptosis
Settings in all cases: library dose: low library concentration; 72 h
[1] = tested on: MZ2-MEL
[2] = tested on: MeWo
[3] = tested on: RPMI7951
[4] = tested on: RVH-421
[5] = tested on: SkMel28
[6] = tested on: SkMel30
[7] = tested on: UACC62
[8] = tested on: SkMel5
[9] = tested on: UACC257
[10] = tested on: SkMel2

Structure (SMILES)	cleaved PARP positive nuclei fraction [1] [%]	cleaved PARP positive nuclei fraction [2] [%]	cleaved PARP positive nuclei fraction [3] [%]	cleaved PARP positive nuclei fraction [4] [%]	cleaved PARP positive nuclei fraction [5] [%]	cleaved PARP positive nuclei fraction [6] [%]	cleaved PARP positive nuclei fraction [7] [%]	cleaved PARP positive nuclei fraction [8] [%]	cleaved PARP positive nuclei fraction [9] [%]	cleaved PARP positive nuclei fraction [10] [%]
C[C@]12O[C@H](C[C@]1(O)CO)n1c3ccccc3c3c4c(c5c6ccccc6n2c5c31)CNC4=O [Lestaurtinib] + CS(=O)(=O)c1ccc(C(=O)Nc2ccc(Cl)c(-c3ccccn3)c2)c(Cl)c1 [vismodegib] (first compound 0.004 µM, partner dose 1 µM)	56.1	226	30.8	80.4	128	116	242			
Cn1cc(C2=C(c3cn(C4CCN(Cc5ccccn5)CC4)c4ccccc34)C(=O)NC2=O)c2ccccc21 [Enzastaurin] + CO[C@H]1C[C@@H]2CC[C@@H](C)[C@@](O)(O2)C(=O)C(=O)N2CCCC[C@H]2C(=O)O[C@H]([C@H](C)C[C@@H]2CC[C@@H](OCCO)[C@H](OC)C2)CC(=O)[C@H](C)/C=C(\C)[C@@H](O)[C@@H](OC)C(=O)[C@H](C)C[C@H](C)/C=C/C=C/C=C/1C [everolimus] (first compound 0.8 µM, partner dose 0.02 µM)	78.2	53	111	129	44	40.7	85.1			
N.N.[Cl][Pt][Cl] [cisplatin] + O=C(Oc1ccc([N+](=O)[O-])cc1)N1CCC(C(O)(c2ccc3c(c2)OCO3)c2ccc3c(c2)OCO3)CC1 [JZL184] (first compound 1.6 µM, partner dose 1 µM)		76.1	1420	63.3	150	82.1	129	78.6	45.9	
CN(NC(=O)CC(=O)NN(C)C(=S)c1ccccc1)C(=S)c1ccccc1 + Cc1cc(SCc2sc(-c3ccc(C(F)(F)F)c(F)c3)nc2C)ccc1OCC(=O)O [GW0742] (first compound 0.006 µM, partner dose 2 µM)	85		35.4	60.5	54.4	36.2	171	90	40.8	
C[C@]12O[C@H](C[C@]1(O)CO)n1c3ccccc3c3c4c(c5c6ccccc6n2c5c31)CNC4=O [Lestaurtinib] + CC(=O)c1c(C)c2cnc(Nc3ccc(N4CCNCC4)cn3)nc2n(C2CCCC2)c1=O [palbociclib] (first compound 0.004 µM, partner dose 0.04 µM)	98.6	29.2	34.8	232	104	78.5	124			
C[C@]12O[C@H](C[C@]1(O)CO)n1c3ccccc3c3c4c(c5c6ccccc6n2c5c31)CNC4=O [Lestaurtinib] + CS(=O)(=O)CCNCc1ccc(-c2ccc3ncnc(Nc4ccc(OCc5cccc(F)c5)c(Cl)c4)c3c2)o1 [lapatinib] (first compound 0.004 µM, partner dose 0.8 µM)	66.5	240	143	46.7	81.8	84.9	167			
Cn1sc(=O)n(Cc2ccccc2)c1=O + C[C@]12O[C@H](C[C@]1(O)CO)n1c3ccccc3c3c4c(c5c6ccccc6n2c5c31)CNC4=O [Lestaurtinib] (first compound 0.4 µM, partner dose 0.004 µM)	69.5	106	37.4	83.6	54.3	60.6	74.9			
COc1cc([C@@H]2c3cc4c(cc3[C@@H](O[C@@H]3O[C@@H]5CO[C@@H](C)O[C@H]5[C@H](O)[C@H]3O)[C@H]3COC(=O)[C@H]23)OCO4)cc(OC)c1O [etoposide] + C[C@]12O[C@H](C[C@]1(O)CO)n1c3ccccc3c3c4c(c5c6ccccc6n2c5c31)CNC4=O [Lestaurtinib] (first compound 0.02 µM, partner dose 0.004 µM)	160	58.4	31.3	206	65.3	79.4	52.1			
C[C@]12O[C@H](C[C@]1(O)CO)n1c3ccccc3c3c4c(c5c6ccccc6n2c5c31)CNC4=O [Lestaurtinib] + COCC[n+]1c2c(n(Cc3cnccn3)c1C)C(=O)c1ccccc1C2=O [YM155] (first compound 0.004 µM, partner dose 0.0004 µM)	120	31.8	30.8	47.8	93.3	13.5	30			
C[C@]12O[C@H](C[C@]1(O)CO)n1c3ccccc3c3c4c(c5c6ccccc6n2c5c31)CNC4=O [Lestaurtinib] + C=C(c1ccc(C(=O)O)cc1)c1cc2c(cc1C)C(C)(C)CCC2(C)C [Bexarotene] (first compound 0.004 µM, partner dose 2 µM)	41.9	157	79.1	172	102	43.6	74.3			
C[C@]12O[C@H](C[C@]1(O)CO)n1c3ccccc3c3c4c(c5c6ccccc6n2c5c31)CNC4=O [Lestaurtinib] + COc1ccc(Cl)c(Nc2nc3ccccc3nc2NS(=O)(=O)c2cccc(NC(=O)C(C)(C)N)c2)c1 [XL147] (first compound 0.004 µM, partner dose 0.8 µM)	45.9	110	84.9	114	203	24	75.4			
Cc1cc(Nc2cc(N3CCN(C)CC3)nc(Sc3ccc(NC(=O)C4CC4)cc3)n2)n[nH]1 [Tozasertib] + C[C@]12O[C@H](C[C@]1(O)CO)n1c3ccccc3c3c4c(c5c6ccccc6n2c5c31)CNC4=O [Lestaurtinib] (first compound 0.006 µM, partner dose 0.004 µM)	141	145	71.6	183	98.7	144	118			
C[C@]12O[C@H](C[C@]1(O)CO)n1c3ccccc3c3c4c(c5c6ccccc6n2c5c31)CNC4=O [Lestaurtinib] + CC(=O)O[C@@]12CO[C@@H]1C[C@H](O)[C@@]1(C)C(=O)[C@H](O)C3=C(C)[C@@H](OC(=O)[C@H](O)[C@@H](NC(=O)OC(C)(C)C)c4ccccc4)C[C@@](O)([C@@H](OC(=O)c4ccccc4)[C@H]21)C3(C)C [Docetaxel] (first compound 0.004 µM, partner dose 0.0001 µM)	102	402	78.5	235	180	378	648			
Cc1cc(SCc2sc(-c3ccc(C(F)(F)F)c(F)c3)nc2C)ccc1OCC(=O)O + COc1cc2ncnc(Nc3ccc(Oc4ccccc4)cc3)c2cc1OC [SrcI1] (first compound 2 µM, partner dose 2 µM)		233	242	81.6	77.5	40.4	162	55.3	115	
N#CC[C@H](C1CCCC1)n1cc(-c2ncnc3[nH]ccc23)cn1 [ruxolitinib] + C[C@]12O[C@H](C[C@]1(O)CO)n1c3ccccc3c3c4c(c5c6ccccc6n2c5c31)CNC4=O [Lestaurtinib] (first compound 1 µM, partner dose 0.004 µM)	205	179	40.9	97.3	90.7	45.9	28.7			
O=C(Nc1cc(C(F)(F)F)cc(C(F)(F)F)c1)c1cc(Cl)ccc1O + C[C@]12O[C@H](C[C@]1(O)CO)n1c3ccccc3c3c4c(c5c6ccccc6n2c5c31)CNC4=O [Lestaurtinib] (first compound 0.016 µM, partner dose 0.004 µM)	133	38.9	126	99.2	137	51.5	71.4			
CC1(C)CCC(c2ccc(Cl)cc2)=C(CN2CCN(c3ccc(C(=O)NS(=O)(=O)c4ccc(N[C@H](CCN5CCOCC5)CSc5ccccc5)c(S(=O)(=O)C(F)(F)F)c4)cc3)CC2)C1 + C[C@]12O[C@H](C[C@]1(O)CO)n1c3ccccc3c3c4c(c5c6ccccc6n2c5c31)CNC4=O [Lestaurtinib] (first compound 0.4 µM, partner dose 0.004 µM)	202	253	104	59.7	73.8	68.1	39.9			
Cc1ccc(Nc2nccc(N(C)c3ccc4c(C)n(C)nc4c3)n2)cc1S(N)(=O)=O [Pazopanib] + C[C@]12O[C@H](C[C@]1(O)CO)n1c3ccccc3c3c4c(c5c6ccccc6n2c5c31)CNC4=O [Lestaurtinib] (first compound 0.4 µM, partner dose 0.004 µM)	64.9	67	99.7	73.9	124	38.1	103			
Cc1cn(-c2cc(NC(=O)c3ccc(C)c(Nc4nccc(-c5cccnc5)n4)c3)cc(C(F)(F)F)c2)cn1 [nilotinib] + C[As](C)SC[C@H](NC(=O)CC[C@H](N)C(=O)O)C(=O)NCC(=O)O [Darinaparsin] (first compound 0.2 µM, partner dose 0.4 µM)	69	38.1	225	22.4	42.1	162	136			
CO[C@H]1C[C@@H]2CC[C@@H](C)[C@@](O)(O2)C(=O)C(=O)N2CCCC[C@H]2C(=O)O[C@H]([C@H](C)C[C@@H]2CC[C@@H](OCCO)[C@H](OC)C2)CC(=O)[C@H](C)/C=C(\C)[C@@H](O)[C@@H](OC)C(=O)[C@H](C)C[C@H](C)/C=C/C=C/C=C/1C [everolimus] + C[As](C)SC[C@H](NC(=O)CC[C@H](N)C(=O)O)C(=O)NCC(=O)O [Darinaparsin] (first compound 0.02 µM, partner dose 0.4 µM)	69.9	116	30.4	167	1110	36.1	604			
C[C@]12O[C@H](C[C@]1(O)CO)n1c3ccccc3c3c4c(c5c6ccccc6n2c5c31)CNC4=O [Lestaurtinib] + Nc1cccc2c1CN(C1CCC(=O)NC1=O)C2=O [lenalidomide] (first compound 0.004 µM, partner dose 1 µM)	95	63.4	107	96.6	61.1	111	35.6			
CN1CCN(c2ccc3nc(-c4c(N)c5c(F)cccc5[nH]c4=O)[nH]c3c2)CC1 [Dovitinib] + Cc1cc(SCc2sc(-c3ccc(C(F)(F)F)c(F)c3)nc2C)ccc1OCC(=O)O [GW0742] (first compound 0.1 µM, partner dose 2 µM)		129	68.6	28.2	77.2	69.4	150	83.1	37.7	135

Part of the list above, bar-delimited.
Structure (SMILES) | cleaved PARP positive nuclei fraction [1] [%] | cleaved PARP positive nuclei fraction [2] [%] | cleaved PARP positive nuclei fraction [3] [%] | cleaved PARP positive nuclei fraction [4] [%] | cleaved PARP positive nuclei fraction [5] [%] | cleaved PARP positive nuclei fraction [6] [%] | cleaved PARP positive nuclei fraction [7] [%] | cleaved PARP positive nuclei fraction [8] [%] | cleaved PARP positive nuclei fraction [9] [%] | cleaved PARP positive nuclei fraction [10] [%]
N.N.[Cl][Pt][Cl] [cisplatin] + O=C(Oc1ccc([N+](=O)[O-])cc1)N1CCC(C(O)(c2ccc3c(c2)OCO3)c2ccc3c(c2)OCO3)CC1 [JZL184] (first compound 1.6 µM, partner dose 1 µM) |  | 76.1 | 1420 | 63.3 | 150 | 82.1 | 129 | 78.6 | 45.9 | 
CN(NC(=O)CC(=O)NN(C)C(=S)c1ccccc1)C(=S)c1ccccc1 + Cc1cc(SCc2sc(-c3ccc(C(F)(F)F)c(F)c3)nc2C)ccc1OCC(=O)O [GW0742] (first compound 0.006 µM, partner dose 2 µM) | 85 |  | 35.4 | 60.5 | 54.4 | 36.2 | 171 | 90 | 40.8 | 
